The values below are quoted from earlier work in patent US12527768B2, “Compositions comprising an anti-inflammatory drug and a dicer activator for use in the treatment of neuronal diseases” (NeuroSense Therapeutics Ltd., priority 2017, dated 2026).

SMILES strings stand for the structures.

In this data set the test system is SOD1 mutant zebrafish. The following applies: 1 μM in swimming water; cited from earlier work.

Consider `Nc1nc2ccc(OC(F)(F)F)cc2s1` [Riluzole], for which the “toxicity in SOD1 mutant zebrafish” value is on record as “no toxicity”.
